Experimental data taken from PubChem BioAssay AID2685 (National Center for Advancing Translational Sciences (NCATS), 2010).
Some of the results follow. Further columns of the screen follow, without active or inactive calls. Most of these compounds were active or inconclusive in the main read-out, so they are no random draw. The note in brackets gives the kind of curve behind each potency; many fits are weak.

Experiment: qHTS Assay for Lipid Storage Modulators in Drosophila S3 Cells;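 as to cell number change: cells counted by Cell Tracker Red CMTPX staining in the red channel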
Conditions: BODIPY lipid droplet fluorescence, 18-24 h; for cell number change: measured here: cell count max response, cells fed with added oleic acid
Method in brief: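 Drosophila S3 cells got compounds at several concentrations plus oleic acid (400 uM solution). Laser-scanning cytometry with 488 nm excitation read lipid droplets at 500-530 nm and cells at 575-640 nm. Percent activity was relative to 20 uM Triacsin C.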

[1] = measured here: cell number channel AC50, cells fed with added oleic acid
[2] = measured here: lipid fluorescence (Fed channel) AC50, cells fed with added oleic acid

Compound	cell number change	AC50 [1]	AC50 [2]
CCn1c(=O)c(C(=O)NCc2ccccc2Cl)c(O)c2ccccc21	33.8%	29.1 µM [rising, single point]	23.1 µM [rising, single point]
Cc1ccc(-c2nn3c(=O)c(C)nnc3s2)cc1		2.91 µM [rising, partial curve]	6.51 µM [rising, partial curve, poor fit]
Cc1cc(C(=O)COC(=O)c2ccc(N)c([N+](=O)[O-])c2)c(C)n1-c1ccc2c(c1)OCO2	-12.2%		0.517 µM [rising, full curve]
CN(C)C=Nc1nonc1-c1ccc(Cl)cc1	-54.8%	16.4 µM [falling, single point]	20.6 µM [falling, single point]
C=CCn1c(CCc2ccccc2)nnc1SCC(N)=O	-3.7%		6.51 µM [rising, single point]
O=C(Nc1ccnn1C1CCN(Cc2c(F)cccc2Cl)CC1)C1CCCC1			0.116 µM [rising, single point]
Cc1cccc(OCC(=O)Nc2nnc(S(=O)(=O)N3CCCCCC3)s2)c1	16.2%		29.1 µM [falling, single point]
Cc1c(C(=O)NCCCN2CCOCC2)oc2c1C1(CCC2)SCCS1	11.6%		6.51 µM [rising, partial curve, poor fit]
CN1C(C(=O)NCc2ccccc2)CC2Cn3c(nc4ccccc43)C21 (stereo not drawn)	18.1%		13 µM [rising, single point]
CCCCCCS(=O)[C@H]1CS(=O)(=O)C[C@@H]1S(=O)CCCCCC (stereo partly drawn)		0.517 µM [falling, full curve, poor fit]	
CCSc1nc(N2CCOCC2)c2c(c1C#N)CC(C)(C)N(C)C2	104%	29.1 µM [rising, single point]	6.51 µM [falling, single point]
CCCCOCCCNC1=NCCCCC1	3%		0.00517 µM [falling, full curve, poor fit]
O=C(c1ccc(-c2cccc(C(F)(F)F)c2)o1)N1CCCCCCC1	-48.6%	32.6 µM [falling, single point]	2.91 µM [rising, single point]
O=C(Nc1ccc(S(=O)(=O)NC2=NCCCCC2)cc1)c1cc(F)c(F)cc1Cl	22.1%		
CCc1ccc(OCC(=O)NC(=S)Nc2ccc(C(C)=O)cc2)c(Br)c1	-2.79%	0.092 µM [falling, full curve, poor fit]	
CN1CCN(c2nc(-c3ccc(Cl)s3)cs2)CC1		0.116 µM [rising, full curve, poor fit]	
CN(CC(=O)Nc1cccc(F)c1)C(=O)CSc1nc2ccccc2s1	33.6%	29.1 µM [rising, single point]	
Cc1ccc(S(=O)(=O)N2Cc3ccccc3CC2C(=O)NC(C)(C)C)cc1 (stereo not drawn)	-6.06%		
CC(C)CC(O)(c1ccccc1)C(CN1CCOCC1)c1ccccc1 (stereo not drawn)	-34.8%	25.9 µM [falling, single point]	

Entries shown so far that have a furan ring, fused or not, in the order listed:
Compound	cell number change	AC50 [1]	AC50 [2]
Cc1c(C(=O)NCCCN2CCOCC2)oc2c1C1(CCC2)SCCS1	11.6%		6.51 µM [rising, partial curve, poor fit]
O=C(c1ccc(-c2cccc(C(F)(F)F)c2)o1)N1CCCCCCC1	-48.6%	32.6 µM [falling, single point]	2.91 µM [rising, single point]

Additional records:

Compound	cell number change	AC50 [1]	AC50 [2]
Cc1cc(OCCCCCN2CCCC2)ccc1Cl	-34.7%	8.91 µM [falling, partial curve, poor fit]	8.91 µM [falling, partial curve, poor fit]
COc1cc(OC)c(C(=O)CCC(=O)O)cc1OC	11.1%	1.46 µM [falling, partial curve]	1.16 µM [falling, single point]
CC(Oc1ccccc1Cl)C(=O)N(Cc1cccs1)C1CCS(=O)(=O)C1 (stereo not drawn)	-4.32%		0.164 µM [falling, full curve, poor fit]
COc1cccc(CNC(=O)C2Cc3ccccc3CN2C(C)=O)c1 (stereo not drawn)	-18.4%		
CS(=O)(=O)N(Cc1ccc(C(=O)NCCSCc2ccco2)cc1)c1ccccc1		6.51 µM [rising, single point]	4.61 µM [rising, partial curve]
CCOC(=O)/C=C1\SCC(=O)N1CC(=O)Nc1ccc(C(C)C)cc1	-17%		
COc1ccc(OC)c(C2C(C(C)=O)=C(O)C(=O)N2Cc2cccnc2)c1 (stereo not drawn)	16%		20.6 µM [falling, single point]
Cc1ccc(-c2cc(-c3ccccc3)nc(N(C)N)n2)cc1	-15.6%		14.6 µM [falling, single point]
S=c1[nH]nc(CN2CCCC2)n1Cc1ccccc1	1.38%		
COc1cc(OC)c(NC(=O)CS(=O)(=O)Cc2nc(-c3ccc(C)cc3)oc2C)cc1Cl	-8.84%		16.4 µM [falling, single point]
Cc1cc(OC(=O)c2ccc(S(=O)(=O)N(C)C)cc2)cc(=O)o1	2.79%		6.51 µM [falling, single point]
COc1ccccc1Nc1nc2ccc(C)cc2cc1C#N	22.5%		29.1 µM [rising, single point]
CCOC(=O)/C(=N\Nc1ccccc1Cl)N1CCN(c2ccccc2OC)CC1		6.51 µM [rising, partial curve]	4.61 µM [rising, partial curve]
Clc1ccc(COc2ccccc2-c2ccnc3ncnn23)cc1	77.6%	29.1 µM [rising, single point]	
CC(OC(=O)c1ccccc1C(=O)N(C)Cc1ccccc1)C(=O)NC1(C#N)CCCCC1 (stereo not drawn)	-8.03%		
C=CCn1c(SCc2csc(-c3ccc(C)cc3)n2)nnc1-c1ccccc1OC	-16.7%		16.4 µM [falling, single point]
COc1ccccc1NS(=O)(=O)c1cc(NC(=O)c2cccs2)ccc1N1CCCC1	-31.6%	6.51 µM [falling, full curve, poor fit]	
CN(Cc1c(C(=O)N2CCCCCCC2)nc2ccc(Cl)cn12)C1CCOC1 (stereo not drawn)	2.31%		6.51 µM [falling, single point]
COc1cc(NC(=O)c2cccnc2Sc2ccc(C)c(C)c2)cc(OC)c1OC	0.327%		32.6 µM [rising, partial curve, poor fit]
